For experiment [1], the target named is ATPase family AAA domain-containing protein 3A (human (endogenous in iPS-derived neurons, fibroblasts, postmortem brain, HEK293)) (UniProt Q9NVI7). Put plainly: non-reducing SDS-PAGE and western blot; endogenous protein in total lysates of cells or tissues, 8% SDS-PAGE in the presence or absence of β-mercaptoethanol, WB with anti-ATAD3A or anti-Drp1. (In general: In western blotting, separated proteins are transferred to a membrane and probed.)

The target is the same in experiment [2]. Nature of the experiment: cross-linking; HEK293 cells treated with cell-permeable DSP for 5 min at 37 °C, total lysates, SDS-PAGE and WB.

These are yes or no findings as the source states them, for the method shown. For some assays here: In cells and extracts the contact can be indirect. Some entries that bind do so weakly or less than the wild type.

B1: ATPase family AAA domain-containing protein 3A (protein, UniProt Q9NVI7-2 1-586)
chain: MSWLFGINKGPKGEGAGPPPPLPPAQPGAEGGGDRGLGDRPAPKDKWSNFDPTGLERAAKAARELEHSRYAKDALNLAQMQEQTLQLEQQSKLKEYEAAVEQLKSEQIRAQAEERRKTLSEETRQHQARAQYQDKLARQRYEDQLKQQQLLNEENLRKQEESVQKQEAMRRATVEREMELRHKNEMLRVEAEARARAKAERENADIIREQIRLKAAEHRQTVLESIRTAGTLFGEGFRAFVTDWDKVTATVAGLTLLAVGVYSAKNATLVAGRFIEARLGKPSLVRETSRITVLEALRHPIQVSRRLLSRPQDALEGVVLSPSLEARVRDIAIATRNTKKNRSLYRNILMYGPPGTGKTLFAKKLALHSGMDYAIMTGGDVAPMGREGVTAMHKLFDWANTSRRGLLLFVDEADAFLRKRATEKISEDLRATLNAFLYRTGQHSNKFMLVLASNQPEQFDWAINDRINEMVHFDLPGQEERERLVRMYFDKYVLKPATEGKQRLKLAQFDYGRKCSEVARLTEGMSGREIAQLAVSWQATAYASEDGVLTEAMMDTRVQDAVQQHQQKMCWLKAEGPGRGDEPSPS
On to B1, for which the binding entry in experiment [1] and in experiment [2] was “binds” each time.
